Experimental data published in patent US20150158938A1 (SNU R AND DB FOUNDATION, published 2015).
Results are given in words; binding and its absence hold for the method and conditions named. Some binding calls cover weakened binding; strength is not graded here.

Target: T1, gremlin-1 in normal and cancer tissues (tissue array slides) (UniProt O60565)
T1 sequence (looked up): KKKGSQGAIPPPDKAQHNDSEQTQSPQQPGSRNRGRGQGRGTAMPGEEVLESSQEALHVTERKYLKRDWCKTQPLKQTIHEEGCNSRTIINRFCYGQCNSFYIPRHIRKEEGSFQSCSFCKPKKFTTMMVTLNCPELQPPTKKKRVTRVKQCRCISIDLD
Assay: immunohistochemical staining of tissue array slides with FITC-labelled O-13

- binding: binds
B1: O-13 antibody (antibody, V domains shown)
VH: EVQLLESGGGLVQPGGSLRLSCAASGFTFSSYDMSWVRQAPGKGLEWVSAISYDNGNTYYADSVKGRFTISRDNSKNTLYLQMNSLRAEDTAVYYCAKDGYHNEIAPFDYWGQGTLVTVSS
VL: QSVLTQPPSASGTPGQRVTISCSGSSSNIGSNDVNWYQQLPGTAPKLLIYYDSKRPSGVPDRFSGSKSGTSASLAISGLRSEDEADYYCATWDDSLSAYVFGGGTKLTVL
